# Values joined by “and” are separate entries in the source; they are usually repeats but may differ in a detail not shown here. Equal values may be shown once. The whole screen tested about 400,000 compounds, of which about 3,700 (0.93%) were called active. Inconclusive means that the source gave no clear call. Such entries were picked first, then a sample of the others. Calls follow the shape of the dose curve; as a rule, active = well fitted inhibition curve with a large enough effect; inconclusive = small, poorly fitted or top-dose-only effect, or another doubt; inactive = no such curve, though single readings can be large or run the other way. Potencies beside an inconclusive call are fits to weak or partial responses and may not hold up.
# Amino acid sequences for entries named in this document (tags omitted). A change or cut given only in a name is not applied to a line headed by its entry.
# UniProt P11473: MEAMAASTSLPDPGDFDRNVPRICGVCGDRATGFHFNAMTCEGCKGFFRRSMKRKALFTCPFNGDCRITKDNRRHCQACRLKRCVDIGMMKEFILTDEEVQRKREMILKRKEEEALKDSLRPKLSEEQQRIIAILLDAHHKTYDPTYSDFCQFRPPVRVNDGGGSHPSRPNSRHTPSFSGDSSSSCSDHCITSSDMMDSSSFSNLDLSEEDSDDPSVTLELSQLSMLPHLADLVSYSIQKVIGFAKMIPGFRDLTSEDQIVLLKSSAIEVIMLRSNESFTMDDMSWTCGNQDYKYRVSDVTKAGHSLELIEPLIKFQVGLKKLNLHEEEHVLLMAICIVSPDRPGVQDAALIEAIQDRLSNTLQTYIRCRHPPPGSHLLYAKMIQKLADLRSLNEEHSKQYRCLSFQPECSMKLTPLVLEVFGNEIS
# Target: Vitamin D3 receptor (Homo sapiens) (UniProt P11473)
# Assay: Inhibitors of the vitamin D receptor (VDR): qHTS
# Settings: VDR-SRC2-3 peptide fluorescence polarization, 2 h; max response, negative = inhibition: stronger effect = lower value
# Procedure, shortened: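 Fluorescence polarization assay measuring small-molecule disruption of VDR binding to the coregulator peptide SRC2-3. Compounds were pin-transferred (23 nl) into the reagent mix and incubated 2 h at room temperature before reading.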
# % is scaled to controls: 0 for no effect and ±100 for the full control effect; potency is read from the fitted curve at half-maximal effect.
Structure (SMILES),Potency,"max response, negative = inhibition"
CCCC[C@@H]1CNC(=S)N1CCC12CC3CC(CC(C3)C1)C2,"inconclusive: 79.4 µM [inhibitor, partial curve, poor fit]",–
O=C(NC1CCCCCC1)c1c(O)nc2sccn2c1=O,–,inactive: -20.1%
O=C1C(=O)N(CCCN2CCOCC2)C(c2ccc(Cl)cc2)/C1=C(\O)c1ccc2c(c1)OCCO2 (centres undefined),"inconclusive: 39.8 µM [inhibitor, single point]",–
C[C@@]12C(=O)Nc3cc(F)ccc3C(=O)N1[C@H]1c3cc(Br)ccc3OC[C@@H]1[C@@H]2c1ccccc1,"inconclusive: 100 µM [inhibitor, single point]",–
c1ccc(Nc2ccccn2)cc1,"inconclusive: 39.8 µM [inhibitor, single point]",–
C=CCn1c(NC(=O)c2ccccc2Cl)c(C#N)c2nc3ccccc3nc21,active: 35.5 µM,–
Cc1ccnc(NC(=O)COc2ccc3c(c2)CCC3)c1,"inconclusive: 79.4 µM [inhibitor, single point]",–
CN1C2C=C3C(C#N)=C(N)C(C#N)(C#N)C(c4ccc(Br)cc4)C3C1CC2 (centres undefined),"inconclusive: 50.1 µM [inhibitor, partial curve, poor fit]",–
Cc1ccc(C(=S)N2CCCCCC2)cc1,"inconclusive: 89.1 µM [inhibitor, single point]",–
CCCOc1cccc(C(=O)N/N=C/c2coc3ccccc3c2=O)c1,"inconclusive: 39.8 µM [inhibitor, full curve, poor fit]",–
O=C(NCCc1cccc(F)c1)C1CCN(S(=O)(=O)c2ccc(F)cc2)CC1,–,inactive: -1.6%
CC(C)Cc1ccc(S(=O)(=O)Nc2ccc3[nH]c(=O)[nH]c3c2)cc1,–,inactive: -3.73% and inactive: 14.8%
COc1ccc(OC)c(NC(=O)c2c(NC(=O)CCC(=O)O)sc3c2CCCCC3)c1,"inconclusive: 79.4 µM [inhibitor, single point]",–
CCOc1cc(/C=C/C(=O)O)ccc1OCCO,"inconclusive: 20 µM [inhibitor, partial curve]",–
CN(CCO)c1nc(-c2cccs2)nc2ccccc12,"inconclusive: 79.4 µM [inhibitor, single point]",–
COc1ccc(/C=C2\CN(Cc3ccccc3)C/C(=C\c3ccc(OC)c(O)c3)C2=O)cc1O,"inconclusive: 6.31 µM [inhibitor, partial curve, poor fit]",–
COC1=C[C@@H](C)C2CC3OC(=O)C[C@H]4C(C)=C(OC)C(=O)C([C@@]2(C)C1=O)[C@@]34C (some centres undefined),–,inactive: 7.26%
COc1cc(C(=O)O/N=C2\CCCc3c2ccc(OC)c3[N+](=O)[O-])cc(OC)c1OC,–,inactive: -1.55%
O=S(=O)(O)c1cc(O)c2c(O)c(N=Nc3cc(Cl)ccc3O)c(S(=O)(=O)O)cc2c1,"inconclusive: 35.5 µM [inhibitor, partial curve, poor fit]",–
CN(C)CCCN(C(=O)c1ccc(Cl)s1)c1nc2cc3c(cc2s1)OCO3,"inconclusive: 89.1 µM [inhibitor, partial curve, poor fit]",–
Cc1[nH]c2ccccc2c1C(=O)CSc1ccc(Cl)cc1,"inconclusive: 56.2 µM [inhibitor, partial curve, poor fit]",–
CC1CCN(C(=S)c2cn(Cc3ccc(F)cc3)c3ccccc23)CC1,–,inactive: -5.27%

# Entries shown so far containing fluorine, in the order listed:
Structure (SMILES),Potency,"max response, negative = inhibition"
C[C@@]12C(=O)Nc3cc(F)ccc3C(=O)N1[C@H]1c3cc(Br)ccc3OC[C@@H]1[C@@H]2c1ccccc1,"inconclusive: 100 µM [inhibitor, single point]",–
O=C(NCCc1cccc(F)c1)C1CCN(S(=O)(=O)c2ccc(F)cc2)CC1,–,inactive: -1.6%
CC1CCN(C(=S)c2cn(Cc3ccc(F)cc3)c3ccccc23)CC1,–,inactive: -5.27%

# Part of the list above in order of SMILES length, ascending:
Structure (SMILES),Potency,"max response, negative = inhibition"
CCOc1cc(/C=C/C(=O)O)ccc1OCCO,"inconclusive: 20 µM [inhibitor, partial curve]",–
CCCOc1cccc(C(=O)N/N=C/c2coc3ccccc3c2=O)c1,"inconclusive: 39.8 µM [inhibitor, full curve, poor fit]",–
O=C1C(=O)N(CCCN2CCOCC2)C(c2ccc(Cl)cc2)/C1=C(\O)c1ccc2c(c1)OCCO2 (centres undefined),"inconclusive: 39.8 µM [inhibitor, single point]",–

# Following part.

Structure (SMILES),Potency,"max response, negative = inhibition"
COc1ccc(NC(=O)Cn2c(=O)n(-c3cccc(C)c3)c(=O)c3c2c2cc(C)ccc2n3C)cc1OC,–,inactive: 10.4%
CC1CCCN(C(=S)Nc2ccc(Nc3ccccc3)cc2)C1 (centres undefined),"inconclusive: 50.1 µM [inhibitor, partial curve, poor fit]",–
CC(=O)Nc1sc(N/N=C/c2ccccc2F)nc1-c1ccc(C)cc1,"inconclusive: 15.8 µM [inhibitor, full curve, poor fit]",–
CCOC(=O)c1c(NC(=O)c2ccccc2Cl)sc2c1CCc1ccccc1-2,"inconclusive: 50.1 µM [inhibitor, partial curve]",–
COC(=O)CC1C(C)(C)C(OC(C)=O)C2CC3=C4CC(=O)OC(c5ccoc5)[C@]4(C)CCC3[C@@]1(C)C2=O (some centres undefined),"inconclusive: 44.7 µM [inhibitor, partial curve, poor fit]",–
COc1cc(CNC2CCCC2)cc(Cl)c1OCc1ccc(F)cc1,–,inactive: 10.3%
CN(CCO)c1cc(N2CCC3(CC2)OCCO3)c2nonc2c1[N+](=O)[O-],–,inactive: 3.36%
Cc1c(NC(=S)NC(NC(=O)C(C)C)C(Cl)(Cl)Cl)c(=O)n(-c2ccccc2)n1C (centres undefined),"inconclusive: 89.1 µM [inhibitor, single point]",–
CSc1nnc(N2C(=O)C(O)=C(C(=O)c3ccco3)C2c2cccc(Cl)c2)s1 (centres undefined),–,inactive: 5.88%
O=C1C(CN2CCCC2)CCCC1CN1CCCC1 (centres undefined),"inconclusive: 70.8 µM [inhibitor, partial curve]",–
Oc1ccccc1N1CCN(CC(O)COCc2ccccc2Cl)CC1 (centres undefined),–,inactive: -8.32%
COc1ccc(NC2=C(NCCO)C(=O)c3ccccc3C2=O)cc1,"inconclusive: 39.8 µM [inhibitor, partial curve, poor fit]",–
CS(=O)(=O)Nc1cccc(-c2cn3c(n2)SCC3)c1,"inconclusive: 79.4 µM [inhibitor, single point]",–
COc1ccccc1-c1nc(NCc2cccs2)c2ccccc2n1,"inconclusive: 44.7 µM [inhibitor, partial curve]",–
O=C(Nc1ccccc1C(=O)O)c1ccc2ccccc2n1,–,inactive: -15.1%
Cc1ccc(N2C(=O)C3C(C2=O)N2CCCN2C3c2ccccc2)cc1C (centres undefined),"inconclusive: 70.8 µM [inhibitor, partial curve]",–
Cc1ccc(C(=O)CCS(=O)(=O)c2ccc(Cl)cc2)cc1,"inconclusive: 3.55 µM [inhibitor, full curve]",–
COC(=O)[C@@]1(Cc2ccc(F)cc2)[C@@H]2[C@@H](CC(=O)[C@H]2CC(=O)C(=O)N(C)C)CN1C(=O)c1ccccc1,–,inactive: 3.05%
Cc1ccc(S(=O)(=O)c2ccc([N+](=O)[O-])o2)cc1,active: 44.7 µM,–
O=C(Nc1ccc(F)c(Cl)c1)Nc1ccc(Cl)cn1,"inconclusive: 35.5 µM [inhibitor, single point]",–
O=C(CCc1nnc2ccc(NCc3ccco3)nn12)N1CCN(c2ccccc2)CC1,"inconclusive: 39.8 µM [inhibitor, single point]",–
C=CCNCCOc1ccccc1-c1ccccc1,–,inactive: 15.1%

Structure (SMILES),Potency,"max response, negative = inhibition"
Nc1nc(N)c(Br)c(Nc2ccc(Cl)c(Cl)c2)n1,–,inactive: -6.64%
CCOC(=O)c1sc(=S)n(-c2cccc(OC)c2)c1N,"inconclusive: 79.4 µM [inhibitor, partial curve, poor fit]",–
S=C(NCCc1c[nH]c2ccccc12)NC1CCCC1,–,inactive: 2.39%
COc1ccc(C2(CNC(=O)c3cccc([N+](=O)[O-])c3)CCOCC2)cc1OC,"inconclusive: 100 µM [inhibitor, single point]",–
CC1(C)CC(=O)C(C(C2=C(O)CC(C)(C)CC2=O)c2ccc(Cl)c([N+](=O)[O-])c2)C(=O)C1 (centres undefined),–,inactive: -0.0891%
Cc1[nH]n(-c2ccccc2)c(=O)c1C(c1ccccc1C(=O)O)c1c(C)[nH]n(-c2ccccc2)c1=O,–,inactive: -2.95%
O=C(O)c1cc(-c2ccco2)nn1-c1ccc(Cl)cc1,"inconclusive: 56.2 µM [inhibitor, partial curve, poor fit]",–
Cc1ccc(N2C(=O)C(Cl)=C(N3CCOCC3)C2=O)c(C)c1,"inconclusive: 63.1 µM [inhibitor, partial curve, poor fit]",–
COc1ccc(C)cc1-n1nnnc1SCc1nc2ccccc2c(=O)[nH]1,"inconclusive: 89.1 µM [inhibitor, partial curve, poor fit]",–
O=C(c1ccco1)N1CCN(Cc2cc(=O)c(OCc3cccc(F)c3)co2)CC1,–,inactive: -2.8%
N#C/C(=C\c1cn(Cc2ccc(F)cc2)c2ccccc12)C(=O)NCc1ccco1,"inconclusive: 100 µM [inhibitor, single point]",–
COCCCNC(=S)NC(=O)c1ccc(C)cc1,–,inactive: 4.34%
O=C(NC(NNc1ccc([N+](=O)[O-])cc1)(C(F)(F)F)C(F)(F)F)c1ccc(F)cc1,"inconclusive: 79.4 µM [inhibitor, single point]",–
O=C(c1ccco1)N1CCC2(CCN(Cc3ccncc3)CC2)CC1,"inconclusive: 70.8 µM [inhibitor, partial curve, poor fit]",–
OCCN1CCN(CC/C=C2/c3ccccc3Sc3ccc(C(F)(F)F)cc32)CC1,"inconclusive: 44.7 µM [inhibitor, full curve] and inconclusive: 100 µM [inhibitor, single point]",–
COc1ccc(CCNc2nc(-c3ccc(F)cc3)c(CC(=O)O)s2)cc1OC,active: 79.4 µM,–
CCOC(=O)[C@@H](CCc1ccccc1)N[C@H](C)C(=O)N1[C@H](C(=O)O)C[C@@H]2CCC[C@@H]21,"inconclusive: 0.708 µM [inhibitor, full curve, poor fit]",–
Nc1c(C(=O)N2CCOCC2)sc2nc(N3CCOCC3)c3c(c12)CCCC3,active: 70.8 µM,–
CN(C)S(=O)(=O)c1ccc(NC(=O)COC(=O)C2CC3CCCC(C2)C3=O)cc1 (centres undefined),"inconclusive: 79.4 µM [inhibitor, partial curve, poor fit]",–
N=C1/C(=C\c2ccc(-c3cccc(Cl)c3)o2)C(=O)N=C2SC=C(c3ccccc3)N12,"inconclusive: 89.1 µM [inhibitor, single point]",–

# — PubChem BioAssay AID504847 (National Center for Advancing Translational Sciences (NCATS), 2011)
